Measured values from publication PMC5264208.
No constants are given. Whether binding was seen depends on the method and setting. Some results given as binding are weak or reduced against the parent protein; the word gives no strength. Each block holds one binder with its values, some of them ahead of it.

Key:
[1] = target: T1, tissue-deposited CRP (human (endogenous in burn wound, skeletal muscle and carotid plaque tissue)), P02741; test: accessibility of the intrasubunit disulfide bond to DTT; tissue lysates with or without 10 mM DTT, 37 °C, 2 h, 25 mM Tris-HCl pH 7.4, 150 mM NaCl, 2 mM CaCl2; NEM; non-reducing SDS-PAGE; DTT reduces mCRP but not pCRP/pCRP*; conditions: remark: other sources report otherwise
T1 chain: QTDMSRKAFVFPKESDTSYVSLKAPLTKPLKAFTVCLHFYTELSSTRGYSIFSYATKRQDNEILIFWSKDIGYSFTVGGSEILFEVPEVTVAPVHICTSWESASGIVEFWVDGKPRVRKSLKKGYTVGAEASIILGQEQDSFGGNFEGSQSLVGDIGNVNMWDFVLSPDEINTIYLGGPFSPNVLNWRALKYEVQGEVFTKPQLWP

[2] = target: T2, pentameric C-reactive protein (human), P02741; test: accessibility of the intrasubunit disulfide bond to DTT; pCRP in the presence of PC/LPC liposomes or microvesicles, 10 mM DTT, 37 °C; non-reducing SDS-PAGE; control mCRP reduced; both purified; conditions: remark: other sources report otherwise
T2 chain: T1 chain

binding [1]: binds
B1: tissue-deposited CRP, P02741 19-224 (natural protein)
chain: T1 chain

binding [2]: binds
B2: pentameric C-reactive protein, P02741 19-224 (natural protein)
chain: T1 chain
